According to article PMC7409167:
No constants are given. Whether binding was seen depends on the method and setting. In cells and extracts the contact can be indirect. A result given as binding can be weak or reduced; the word gives no strength.

Amino acid sequences for entries named in this document (tags omitted). A change or cut given only in a name is not applied to a line headed by its entry. Residues count along the entry.
UniProt Q92769: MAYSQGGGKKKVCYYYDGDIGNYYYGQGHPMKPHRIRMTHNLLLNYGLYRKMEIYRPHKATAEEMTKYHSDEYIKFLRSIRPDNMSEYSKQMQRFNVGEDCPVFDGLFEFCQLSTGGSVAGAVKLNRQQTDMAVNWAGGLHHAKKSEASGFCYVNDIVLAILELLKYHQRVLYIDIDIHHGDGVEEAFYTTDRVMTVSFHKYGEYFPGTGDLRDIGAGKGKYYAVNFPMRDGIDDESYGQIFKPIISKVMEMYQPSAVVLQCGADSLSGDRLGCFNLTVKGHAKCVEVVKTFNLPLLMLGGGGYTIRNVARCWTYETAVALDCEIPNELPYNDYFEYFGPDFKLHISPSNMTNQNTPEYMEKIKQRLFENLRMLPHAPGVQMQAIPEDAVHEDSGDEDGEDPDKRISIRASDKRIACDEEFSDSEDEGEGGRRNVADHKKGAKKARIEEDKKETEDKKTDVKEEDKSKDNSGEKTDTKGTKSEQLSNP
UniProt P02545, residues 1-646: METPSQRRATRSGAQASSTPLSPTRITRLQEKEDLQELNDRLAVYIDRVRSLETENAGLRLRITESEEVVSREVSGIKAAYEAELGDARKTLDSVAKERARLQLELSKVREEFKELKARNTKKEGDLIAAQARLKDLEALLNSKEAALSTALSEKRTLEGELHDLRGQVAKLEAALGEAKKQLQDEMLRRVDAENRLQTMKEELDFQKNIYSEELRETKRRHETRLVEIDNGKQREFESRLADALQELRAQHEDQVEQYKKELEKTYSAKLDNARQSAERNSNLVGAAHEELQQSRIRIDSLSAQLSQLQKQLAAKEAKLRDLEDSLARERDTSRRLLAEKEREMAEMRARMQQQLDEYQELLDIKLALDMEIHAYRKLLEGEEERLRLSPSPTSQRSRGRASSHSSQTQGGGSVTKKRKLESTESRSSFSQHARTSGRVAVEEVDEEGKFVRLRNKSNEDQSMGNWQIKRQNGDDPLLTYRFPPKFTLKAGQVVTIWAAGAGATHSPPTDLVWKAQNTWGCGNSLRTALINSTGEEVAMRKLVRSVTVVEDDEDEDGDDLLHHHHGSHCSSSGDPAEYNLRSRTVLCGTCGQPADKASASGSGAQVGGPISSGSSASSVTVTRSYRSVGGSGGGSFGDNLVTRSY

What was measured:
Assay in all cases: co-IP; HEK293 cells overexpressing GFP-lamin A and FLAG-HDAC2 (wild type or mutant); lysis in 50 mM Tris-HCl pH 8, 150 mM NaCl, 1% NP-40, 0.05% SDS; 700 ug lysate precipitated with anti-FLAG antibody overnight at 4 °C, protein A/G; blot for GFP
FLAG-HDAC2 K75Q = FLAG-HDAC2 K75Q (UniProt Q92769)
FLAG-HDAC2 K75R = FLAG-HDAC2 K75R (UniProt Q92769)
FLAG-HDAC2, wild type = FLAG-HDAC2, wild type (UniProt Q92769)

Measured: binding

GFP-lamin A (from UniProt P02545 1-646)
binds: all assays above
